# Results taken from PubChem BioAssay (NCATS).
# The list shows a part of the results. Shown are side measurements of this screen, not its main read-out; they come without a call. The list favours compounds with an active or inconclusive main result. Potencies come from curve fits of mixed quality, noted in brackets.
# Tests used:
# [1] = qHTS Assay for Inhibitors of PDE-IV (AID 607); details: HEK293 ACTOne CNG channel cells, membrane potential fluorescence; measured here: parental cell counter-screen
# How it was run: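 ACTOne HEK293 cells carry a modified cAMP-gated CNG channel and express endogenous PDE4; plated 1000 cells/well, compounds up to 22.9 uM final. Membrane-potential dye fluorescence (ex 535/em 590) was read; parental cells received 10 uM forskolin + 100 uM RO 20-1724.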
# [2] = qHTS Assay for Lipid Storage Modulators (AID 1519); details: Drosophila S3 cells, BODIPY lipid droplet/cell ratio, laser cytometry, cells loaded with oleic acid
# How it was run: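 Cells seeded at 5,000 per well were treated with compounds over a concentration series and loaded with oleic acid (400 uM, as added). Lipid droplet fluorescence (488 nm excitation, 500-530 nm channel) was read by laser-scanning cytometry and normalized to 20 uM Triacsin C.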
# [3] = measured here: cell count channel max response
# [4] = measured here: cell number channel AC50
# [5] = measured here: lipid (BODIPY) channel AC50
# [6] = measured here: lipid channel max response
SMILES,AC50 [1],"max response [2, 3] [%]","AC50 [2, 4]","AC50 [2, 5]","max response [2, 6] [%]"
COc1ccc(C(=O)N2CCC3(CCCN(c4ccncc4)C3)CC2)cc1,"12.6 µM [rising, single point]",22.8,"3.16 µM [rising, single point]","3.16 µM [rising, partial curve, poor fit]",28.7
CO[C@@]12C[C@@H](COC(=O)c3cncc(Br)c3)CN(C)[C@H]1Cc1cn(C)c3cccc2c13,"12.6 µM [rising, partial curve, poor fit]",98.2,"10 µM [rising, partial curve]","11.2 µM [rising, partial curve]",133
COc1ccccc1-c1ccc2ncnc(N(C)Cc3ccco3)c2c1,"12.6 µM [rising, single point]",27.2,"3.55 µM [rising, partial curve]","3.16 µM [rising, partial curve]",32.3
COc1cccc(-c2ccc3ncnc(Nc4ccccc4)c3c2)c1,"10 µM [rising, partial curve]",21,"0.316 µM [rising, full curve]","0.447 µM [rising, full curve]",25.9
COc1ccccc1-c1nc(N(C)Cc2ccco2)c2ccccc2n1,"10 µM [rising, single point]",23.6,"0.501 µM [rising, full curve, poor fit]","0.562 µM [rising, full curve, poor fit]",31.2
